# Test results reported in PubChem BioAssay AID624291 (National Center for Advancing Translational Sciences (NCATS), 2012).
# In all, about 350,000 compounds went through this assay and about 220 (0.063%) were called active. The shares of active, inactive and inconclusive entries below differ from those in the screen. The call rests on the fitted dose curve; in most records, active means well fitted activation curve with a large enough effect; inconclusive means small, poorly fitted or top-dose-only effect; inactive means no such curve, though single readings can be large or run the other way. A potency beside an inconclusive call is a rough fit, not a confirmed value.
# Assay: qHTS for Activators of Integrin-Mediated Alleviation for Muscular Dystrophy; further: nearly all actives have a fitted effect of over 60% in size;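 on activation: 100% = response of the positive control SU9516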
# Settings: alpha7betagal myoblasts, beta-gal FDG fluorescence, 48 h; activation: at 38.3 µM (top of the series)
# Outline: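 alpha7betagal+/- myoblasts (passage 13, 250/well) treated 48 h at 37C with compounds at 1:260 dilution of DMSO stock. Lysed, then beta-galactosidase activity read as FDG fluorescence (ex 480/em 540) after 30 min, with pre-read for autofluorescence.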
# Potency means the concentration at half of the fitted maximal effect.
SMILES,activation,Potency
CCOc1cc(/C=N/NC(=O)COc2ccc(Cl)cc2)ccc1OS(=O)(=O)c1ccccc1,inactive: -24%,–
COCC(=O)N1CCC(Oc2ccc(C(=O)NC3CCOC(C)(C)C3)cc2)CC1 (stereo not drawn),–,"inconclusive: 3.55 µM [activator, full curve, poor fit]"
O=C(CN1C(=O)/C(=C\c2ccco2)SC1=S)Nc1ccc(O)cc1C(=O)O,–,"inconclusive: 7.94 µM [activator, partial curve, poor fit]"
CCn1c(-c2cc(-c3ccccc3)sc2N)n[nH]c1=S,inactive: 26%,–
COc1ccc(N2CCN(CCC3Oc4cc([N+](=O)[O-])ccc4NC3=O)CC2)cc1 (stereo not drawn),–,active: 8.91 µM
CCC(C)c1ccc(OCC(=O)NNC(=O)C2CCCCC2)cc1 (stereo not drawn),–,"inconclusive: 5.01 µM [activator, single point]"
Cc1ccccc1CCN(C(=O)c1csnn1)C(C(=O)NC1CCCC1)c1ccco1 (stereo not drawn),–,"inconclusive: 1 µM [activator, partial curve, poor fit]"
CC(=O)c1ccc(-n2c(CCC(=O)O)ccc2-c2ccc(Br)cc2)cc1,inactive: -9.74%,–
Cc1ccc(C(=O)Nc2nnc(C)s2)o1,–,"inconclusive: 10 µM [activator, partial curve, poor fit]"
O=C(Nc1ccccc1Cl)c1ccc(Cl)cc1Cl,inactive: -11.3%,–
Nn1cnnc1N/N=C/c1cc(Br)cc(Br)c1O,inactive: -11.8%,–
O=C(c1cnn(Cc2ccccc2)c1)N1CCN(S(=O)(=O)/C=C/c2ccccc2)CC1,–,"inconclusive: 12.6 µM [activator, single point]"
O=C(CSc1nc2ccc(Cl)cc2[nH]1)c1ccc2c(c1)OCO2,inactive: 22.4%,–
CC1=C[C@H](C)[C@H](c2c(F)cccc2Cl)CC1=O,–,"inconclusive: 12.6 µM [activator, partial curve, poor fit]"
CCc1cccc(NC(=O)CCNS(=O)(=O)c2cccc3nonc23)c1,–,"inconclusive: 5.01 µM [activator, single point]"
CCCCn1c(N)c(N(CC(C)C)C(=O)CN(C)S(=O)(=O)c2ccc(C)cc2)c(=O)[nH]c1=O,–,"inconclusive: 5.01 µM [activator, single point]"
CCn1cc(/C=C/C(=O)Nc2ccc(C)cc2Br)cn1,–,"inconclusive: 5.01 µM [activator, single point]"
O=C(CSc1nnc(CNc2ccc(F)cc2)n1-c1ccccc1)N1CCOCC1,–,"inconclusive: 3.98 µM [activator, full curve, poor fit]"
CN(c1ccccc1)S(=O)(=O)c1cccc(NC(=O)C2CC(=O)N(Cc3ccccc3)C2)c1 (stereo not drawn),–,"inconclusive: 5.01 µM [activator, single point]"
CCOC(=O)c1ccccc1-n1nnnc1C,–,"inconclusive: 0.891 µM [activator, full curve, poor fit]"
COc1ccccc1NC(=O)CCC(=O)Nc1cc(OC)c(NC(=O)c2cccs2)cc1OC,–,"inconclusive: 28.2 µM [activator, single point]"
Cc1cccc(-c2nc3c(s2)CCc2onc(-c4ccc(Br)cc4)c2-3)c1,–,"inconclusive: 2.51 µM [activator, partial curve, poor fit]"
CCN1CCN(CCNC(=O)c2ccc3nc(-c4cccc(C)c4)c(-c4cccc(C)c4)nc3c2)CC1,inactive: -19.3%,–

# Molecules above with an aryl thioether with sulfur outside any ring:
SMILES,activation,Potency
O=C(CSc1nc2ccc(Cl)cc2[nH]1)c1ccc2c(c1)OCO2,inactive: 22.4%,–
O=C(CSc1nnc(CNc2ccc(F)cc2)n1-c1ccccc1)N1CCOCC1,–,"inconclusive: 3.98 µM [activator, full curve, poor fit]"

# Additional structures.

SMILES,activation,Potency
COc1ccc(N2CCN(CCCNC(=O)c3ccc(CS(=O)(=O)c4ccc(OC)cc4)o3)CC2)cc1,–,"inconclusive: 4.47 µM [activator, single point]"
Cc1cc(C(=O)COC(=O)c2ccccc2NCCO)c(C)n1CC1CCCO1 (stereo not drawn),–,"inconclusive: 28.2 µM [activator, single point]"
C=COCCCNc1ncnc2sc(-c3ccccc3)cc12,–,"inconclusive: 5.01 µM [activator, single point]"
COc1cc(O)c(C(CC(=O)N2CCCC(C)C2)c2cc(OC)c(OC)c(OC)c2)c(OC)c1 (stereo not drawn),inactive: 21.1%,–
O=C(N/N=C/c1cccc([N+](=O)[O-])c1)c1ccc(CN2CCOCC2)cc1,–,"inconclusive: 2 µM [activator, single point]"
CC(C)c1ccc(OC(=O)c2cccc(S(=O)(=O)N3CCN(C)CC3)c2)cc1,–,"inconclusive: 11.2 µM [activator, partial curve]"
NC(=O)c1nsc(C(=O)N(c2ccccc2)C(C(=O)NCC2CCCO2)c2ccc3ncccc3c2)c1N (stereo not drawn),inactive: -28.3%,–
O=C(CN1C(=O)C2CC=CCC2C1=O)Nc1nc(-c2ccc(F)cc2)cs1 (stereo not drawn),inactive: -0.217%,–
CCOc1ccc(NC(=O)c2c(NC(=O)CNCCN3CCOCC3)sc3c2CCC3)cc1,inactive: -12.8%,–
c1ccc(-c2ccnc3nc(N4CCN(c5ccccc5)CC4)nn23)cc1,–,"inconclusive: 2.82 µM [activator, single point]"
O=C(Nc1ccccc1)C(=O)Nc1ccc2c(c1)N(C(=O)C1CC1)CCC2,–,"inconclusive: 7.94 µM [activator, partial curve, poor fit]"
Cc1cccc(/C=N/NC(=O)Cc2ccc(Cl)cc2)c1O,inactive: -33.3%,–
COCCCN1C(=O)C(O)=C(C(=O)c2ccco2)C1c1cccc(Br)c1 (stereo not drawn),inactive: -23.9%,–
O=C(c1cnn(-c2cccc(F)c2)c1)c1ccccc1O,–,"inconclusive: 3.16 µM [activator, single point]"
CCCCC1=CC2=CC(=O)C(C)(OC(=O)CC)C(=O)C2=CN1CCc1ccc(Br)cc1 (stereo not drawn),–,"inconclusive: 12.6 µM [activator, partial curve, poor fit]"
COc1nccnc1NS(=O)(=O)c1ccc(NCc2ccccc2O)cc1,–,"inconclusive: 28.2 µM [activator, single point]"
O=C1CCC/C(=N/NC(=O)c2ccc(NS(=O)(=O)c3cccs3)cc2)C1,–,"inconclusive: 1.41 µM [activator, partial curve, poor fit]"
COc1ccc(C(=O)NNC(=O)CN2CCN(c3nc(-c4ccccc4)cs3)CC2)cc1,–,"inconclusive: 7.94 µM [activator, partial curve]"
CCN(CC(=O)N1CCOCC1)S(=O)(=O)c1ccccc1,–,"inconclusive: 28.2 µM [activator, single point]"
Cc1ccccc1NCc1nc2ccccc2n1C,–,"inconclusive: 10 µM [activator, partial curve, poor fit]"
O=C(N/N=C/c1cc(Cl)ccc1O)c1cccnc1,inactive: -26.1%,–
CN(C)S(=O)(=O)c1cccc(NC(=O)Cn2cc(C(F)(F)F)cc(Cl)c2=O)c1,–,"inconclusive: 2.82 µM [activator, partial curve, poor fit]"
O=C(NCCN1CCOCC1)c1noc2c1CCc1ccccc1-2,–,"inconclusive: 5.62 µM [activator, single point]"

# One compound at a time (already shown). Order of values: activation	Potency
# `CC(C)c1ccc(OC(=O)c2cccc(S(=O)(=O)N3CCN(C)CC3)c2)cc1` is entered as –	inconclusive: 11.2 µM [activator, partial curve]
# `c1ccc(-c2ccnc3nc(N4CCN(c5ccccc5)CC4)nn23)cc1` is entered as –	inconclusive: 2.82 µM [activator, single point]
# `COc1ccc(C(=O)NNC(=O)CN2CCN(c3nc(-c4ccccc4)cs3)CC2)cc1` is entered as –	inconclusive: 7.94 µM [activator, partial curve]

# (cont.)

SMILES,activation,Potency
COc1ccccc1OCC(=O)Nc1cc2c(cc1C(=O)O)OCCCO2,–,"inconclusive: 5.62 µM [activator, partial curve]"
CC1CN(c2nc3c(c(=O)n(Cc4ccc(Cl)cc4)c(=O)n3C)n2C)CC(C)O1 (stereo not drawn),–,"inconclusive: 2.82 µM [activator, partial curve, poor fit]"
Cc1cc2oc(C(=O)Nc3nonc3C)c(C)c2cc1C,–,"inconclusive: 5.01 µM [activator, single point]"
O=C(O)c1cc2nccc(-c3ccco3)n2n1,–,"inconclusive: 22.4 µM [activator, single point]"
CC(Sc1nncn1C)C(=O)Nc1ccccc1-c1ccccc1 (stereo not drawn),–,"inconclusive: 1.12 µM [activator, partial curve, poor fit]"
O=C1c2ccsc2SCCN1Cc1c(Cl)cccc1Cl,–,"inconclusive: 3.16 µM [activator, single point]"
O=C1c2ccccc2C(=O)N1CCC#C/C=C1\c2ccccc2C(=O)N1c1ccccc1,inactive: -20%,–
Cc1ccc(-c2nn(-c3ccccc3)cc2C2CC(c3ccccc3)=NN2C(=O)CCC(=O)O)cc1 (stereo not drawn),–,"inconclusive: 28.2 µM [activator, single point]"
O=C(NC(=S)Nc1cccc([N+](=O)[O-])c1)C1CCCCC1,–,"inconclusive: 28.2 µM [activator, single point]"
Cc1ccc2[nH]c(C)c(/C=C/c3cc[n+](C)cc3)c2c1,inactive: -75.9%,–
CCN(CC)CCn1c(N)cc(=O)[nH]c1=O,–,"inconclusive: 0.447 µM [activator, full curve, poor fit]"
O=C1NCCN/C1=C\C(=O)c1ccc(F)cc1,–,"inconclusive: 0.501 µM [activator, full curve, poor fit]"
CC(=O)NCCn1c(SCC#N)nc2ccccc2c1=O,inactive: -1.95%,–
CCN(CC)CCCNc1oc(-c2ccc(OC)c(OC)c2)nc1C#N,inactive: -15.6%,–
CCn1c(N)cc(=O)[nH]c1=S,inactive: 0.116%,–
CC(C)(C)NC(=O)CN(CCN1CCOCC1)C(=O)CNS(=O)(=O)c1ccccc1,–,"inconclusive: 5.01 µM [activator, partial curve, poor fit]"
Cc1cc(C)cc(NC(=S)Nc2ccc(Cl)c(Cl)c2)c1,inactive: 11.1%,–
Cc1ccc(S(=O)(=O)N2CCN(C(=O)c3n[nH]c(=O)c4ccccc34)CC2)cc1,–,"inconclusive: 2.51 µM [activator, partial curve, poor fit]"
CC(C)c1ccc2[nH]c3c(c2c1)[C@@H]1CCN2C(=O)CCC[C@H](C3)[C@H]12,inactive: 20.8%,–
CC(/C=N/n1cnnc1)=C\c1ccccc1,–,"inconclusive: 1 µM [activator, full curve, poor fit]"
COC(=O)Nc1ccc2c(c1)ncn2C1CCCCC1,inactive: 26.7%,–
Cc1ccc(CC(=O)NCc2ccc3c(c2)OCO3)cc1,–,"inconclusive: 11.2 µM [activator, partial curve, poor fit]"
